{"source": "PubChem BioAssay AID720505 (Drosophila RNAi Screening Center, 2013)", "assay": "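Fly regulators or components of the CRAC channel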 (primary screen)", "cells": "Drosophila S2R+ cells", "reagents": "long dsRNA against Drosophila genes", "treatment": "thapsigargin (2 µM) in calcium-free buffer to empty internal stores, then 2 mM calcium added back", "detection": "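Stores emptied by 2 µM thapsigargin without calcium, then 2 mM calcium re-added; fluo-4 fluorescence followed by FLIPR in 384-well plates, per-well averaged endpoint, raw; two screen passes, some wells retested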", "reading the numbers": "calcium signal: higher = more calcium entry after store depletion", "hit rule": "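Knock-downs counted as hits when calcium entry dropped relative to STIM1 positive and Rho1 negative controls present on each plate; roughly 1500 genes called, with reductions of differing size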", "calls": "active = called as lowering calcium entry; inactive = not called", "note": "In all, the deposit lists about 20,000 reagents; shown is an unselected part of those with a known target gene and a result. Over the whole deposit, about 2,100 (10%) are marked active. 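Raw plate signals without normalisation; calls rest on control-based scores that were not deposited; replicate 2 separates called from uncalled poorly.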 Names joined by + are all predicted targets of the reagent. Not stated in the record: the amount of reagent, the time to read-out."}
{"gene":"CG15561","amplicon":"DRSC15100","calcium signal, replicate 1":170,"calcium signal, replicate 2":123,"Outcome":"inactive"}
{"gene":"CG17258","amplicon":"DRSC00495","calcium signal, replicate 1":59.8,"calcium signal, replicate 2":81.4,"Outcome":"active"}
{"gene":"CG17258","amplicon":"DRSC22709","calcium signal, replicate 1":97.4,"calcium signal, replicate 2":175,"Outcome":"inactive"}
{"gene":"CG31178","amplicon":"DRSC14590","calcium signal, replicate 1":193,"calcium signal, replicate 2":141,"Outcome":"inactive"}
{"gene":"Tet (Ten-Eleven Translocation (TET) family protein)","amplicon":"DRSC08550","calcium signal, replicate 1":53.7,"calcium signal, replicate 2":120,"Outcome":"active"}
{"gene":"Tet (Ten-Eleven Translocation (TET) family protein)","amplicon":"DRSC08646","calcium signal, replicate 1":71.2,"calcium signal, replicate 2":114,"Outcome":"inactive"}
{"gene":"UBL3 (Ubiquitin like 3)","amplicon":"DRSC20298","calcium signal, replicate 1":126,"calcium signal, replicate 2":141,"Outcome":"inactive"}
{"gene":"UBL3 (Ubiquitin like 3)","amplicon":"DRSC23292","calcium signal, replicate 1":175,"calcium signal, replicate 2":147,"Outcome":"inactive"}
{"gene":"MESK2 + CG10494","amplicon":"DRSC04259","calcium signal, replicate 1":127,"calcium signal, replicate 2":108,"Outcome":"inactive"}
{"gene":"CG34342","amplicon":"DRSC09756","calcium signal, replicate 1":99.7,"calcium signal, replicate 2":64.4,"Outcome":"inactive"}
{"gene":"CG34342","amplicon":"DRSC22515","calcium signal, replicate 1":107,"calcium signal, replicate 2":169,"Outcome":"inactive"}
{"gene":"sug (sugarbabe)","amplicon":"DRSC06855","calcium signal, replicate 1":186,"calcium signal, replicate 2":163,"Outcome":"inactive"}
{"gene":"CG31021","amplicon":"DRSC22319","calcium signal, replicate 1":130,"calcium signal, replicate 2":213,"Outcome":"inactive"}
{"gene":"l(3)87Df (lethal (3) 87Df)","amplicon":"DRSC16982","calcium signal, replicate 1":123,"calcium signal, replicate 2":124,"Outcome":"inactive"}
{"gene":"east (enhanced adult sensory threshold)","amplicon":"DRSC18770","calcium signal, replicate 1":136,"calcium signal, replicate 2":134,"Outcome":"inactive"}
{"gene":"cg (combgap)","amplicon":"DRSC07650","calcium signal, replicate 1":72.6,"calcium signal, replicate 2":154,"Outcome":"inactive"}
{"gene":"cg (combgap)","amplicon":"DRSC23142","calcium signal, replicate 1":111,"calcium signal, replicate 2":125,"Outcome":"inactive"}
{"gene":"CG31301","amplicon":"DRSC22164","calcium signal, replicate 1":88.9,"calcium signal, replicate 2":185,"Outcome":"inactive"}
{"gene":"ICA69 (Islet cell autoantigen 69 kDa)","amplicon":"DRSC11621","calcium signal, replicate 1":116,"calcium signal, replicate 2":96.8,"Outcome":"inactive"}

An excerpt taken from the entries so far, for reference:
{"gene":"Tet (Ten-Eleven Translocation (TET) family protein)","amplicon":"DRSC08646","calcium signal, replicate 1":71.2,"calcium signal, replicate 2":114,"Outcome":"inactive"}
{"gene":"UBL3 (Ubiquitin like 3)","amplicon":"DRSC20298","calcium signal, replicate 1":126,"calcium signal, replicate 2":141,"Outcome":"inactive"}
{"gene":"UBL3 (Ubiquitin like 3)","amplicon":"DRSC23292","calcium signal, replicate 1":175,"calcium signal, replicate 2":147,"Outcome":"inactive"}
